According to PubChem BioAssay (Tox21):
This list was built around the results that the source calls inconclusive (neither active nor inactive); the mix of calls is not that of the screen. For part of these data: Potencies beside an inconclusive call are fits to weak or partial responses and may not hold up. Some compounds were tested as several samples or in several runs, with calls that do not always agree. Calls of active or inactive are those of the source. Unless noted, calls follow the shape of the full dose curve.

Amino acid sequences for entries named in this document (tags omitted). A change or cut given only in a name is not applied to a line headed by its entry.
UniProt P28223, whole entry, looked up: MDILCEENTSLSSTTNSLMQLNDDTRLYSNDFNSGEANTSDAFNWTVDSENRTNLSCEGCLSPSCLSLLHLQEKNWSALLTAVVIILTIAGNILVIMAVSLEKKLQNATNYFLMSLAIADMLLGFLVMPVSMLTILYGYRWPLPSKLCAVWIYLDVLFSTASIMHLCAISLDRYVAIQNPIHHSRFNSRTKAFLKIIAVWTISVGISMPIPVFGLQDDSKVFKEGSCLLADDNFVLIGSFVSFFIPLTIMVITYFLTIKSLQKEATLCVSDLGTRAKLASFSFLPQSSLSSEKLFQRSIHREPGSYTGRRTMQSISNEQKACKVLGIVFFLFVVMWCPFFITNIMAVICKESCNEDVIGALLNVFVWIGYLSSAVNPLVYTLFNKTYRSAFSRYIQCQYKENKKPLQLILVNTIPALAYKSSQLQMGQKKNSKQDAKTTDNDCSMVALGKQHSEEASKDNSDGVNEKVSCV
UniProt P14416, whole entry, looked up: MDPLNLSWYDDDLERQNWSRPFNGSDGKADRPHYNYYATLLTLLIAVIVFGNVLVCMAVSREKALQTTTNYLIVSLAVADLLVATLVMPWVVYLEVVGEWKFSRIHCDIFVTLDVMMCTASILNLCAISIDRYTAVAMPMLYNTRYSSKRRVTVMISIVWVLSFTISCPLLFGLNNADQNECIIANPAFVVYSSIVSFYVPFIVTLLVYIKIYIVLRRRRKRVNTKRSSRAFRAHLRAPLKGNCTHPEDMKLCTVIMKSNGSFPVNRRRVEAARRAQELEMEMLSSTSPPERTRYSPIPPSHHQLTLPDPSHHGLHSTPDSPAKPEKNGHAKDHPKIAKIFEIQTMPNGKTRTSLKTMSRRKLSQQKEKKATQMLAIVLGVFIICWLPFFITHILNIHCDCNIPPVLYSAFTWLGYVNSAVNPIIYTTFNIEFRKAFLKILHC
UniProt P11229: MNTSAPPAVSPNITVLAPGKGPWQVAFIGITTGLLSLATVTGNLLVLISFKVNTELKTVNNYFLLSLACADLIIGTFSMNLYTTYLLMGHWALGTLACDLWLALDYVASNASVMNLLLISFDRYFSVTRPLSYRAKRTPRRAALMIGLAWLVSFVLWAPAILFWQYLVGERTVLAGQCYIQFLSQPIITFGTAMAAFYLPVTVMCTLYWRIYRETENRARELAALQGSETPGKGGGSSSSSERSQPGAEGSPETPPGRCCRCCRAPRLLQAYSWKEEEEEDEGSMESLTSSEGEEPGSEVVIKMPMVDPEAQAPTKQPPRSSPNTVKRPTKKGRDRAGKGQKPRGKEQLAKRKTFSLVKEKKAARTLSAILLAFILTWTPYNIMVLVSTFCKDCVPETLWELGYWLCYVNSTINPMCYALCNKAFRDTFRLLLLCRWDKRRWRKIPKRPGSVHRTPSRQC

Experiments:
[1] = p53 small molecule agonists, cell-based qHTS assay: qHTS cell viability counter screen (AID 1963581); also: nearly all actives have a fitted effect of over 45% in size
Summary of the method: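 ATP content measured by luminescence in HCT-116 p53RE-bla cells treated 16 h at 37 C, same wells as the reporter screen.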

[2] = p53 small molecule agonists, cell-based qHTS assay (AID 1963582; active = well fitted activation curve with a large enough effect in the signal ratio in the repeat runs, not every such curve was filed as active; inconclusive = weak or mixed curves; the % refers to the signal ratio; as to activation: % is scaled to controls: 0 for no effect and ±100 for the full control effect); settings: HCT-116 p53RE-bla reporter, beta-lactamase FRET ratio, 16 h; activation: at 66 µM (top of the series) unless noted
Summary of the method: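 16 h compound exposure (37 C) of p53 response element–bla cells, preceded by 5 h recovery at 37 C/5% CO2; read-out via LiveBLAzer B/G FRET substrate, 2 h RT, fluorescence intensity.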

[3] = cAMP Responsive Elements (CRE) small molecule agonists, cell-based qHTS assay (AID 1963590); settings: CRE-bla HEK293T, beta-lactamase FRET ratio, 3 h; activation: at 92.4 µM (top of the series) unless noted
Summary of the method: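 HEK 293T cells stably bearing CRE-bla were plated at 2,000 cells per well and rested 18 h. Compounds, positive controls or DMSO were added for 3 h at 37 C. LiveBLAzer B/G substrate was then loaded for 2 h at room temperature.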

[4] = molecular target: Beta-2 adrenergic receptor (Homo sapiens) (UniProt P07550); experiment: Adrenergic beta2 receptor (ADRB2) small molecule agonists, cell-based qHTS assay (AID 1963593); settings: CHO-ADRB2 cells, cAMP HTRF, 30 min;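 as to activation: CHO cells stably overexpressing human ADRB2; % is scaled to controls: 0 for no effect and ±100 for the full control effect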
Summary of the method: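 CHO cells stably over-expressing ADRB2 were plated overnight at 37C, then dosed with compounds plus a stimulation mix containing 100uM IBMX and 25uM Ro-20-1724 for 0.5hr at room temperature. cAMP was measured by HTRF competition, 1hr.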

[5] = molecular target: 5-hydroxytryptamine receptor 2A (Homo sapiens) (UniProt P28223); experiment: 5-hydroxytryptamine receptor 2A (HTR2A) small molecule antagonists, cell-based qHTS assay (AID 1963586); also: nearly all actives have a fitted effect of over 45% in size
Summary of the method: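 CHO cells stably expressing human HTR2A were plated for 18 h at 37 C, then loaded with calcium dye for 1 h. Compounds were preincubated 5 min at room temperature before DOI (4 nM solution) was added. Kinetic fluorescence was read for 3 min.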

[6] = cAMP Responsive Elements (CRE) small molecule antagonists, cell-based qHTS assay (AID 1963591; active = well fitted inhibition curve with a large enough effect in the signal ratio in the repeat runs, not every such curve was filed as active; inconclusive = weak or mixed curves, or effect the other way; the % refers to the signal ratio; as to activity change, negative = inhibition: % is scaled to controls: 0 for no effect and ±100 for the full control effect); settings: CRE-bla HEK293T, beta-lactamase FRET ratio; activity change, negative = inhibition: at 92.4 µM (top of the series) unless noted
Summary of the method: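 First, CRE-bla HEK293T cells settled 18 h at 37 C. Next, compound and 0.25 uM final NKH477 were applied for 3 h. Last, LiveBLAzer B/G substrate was loaded for 2 h at room temperature.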

[7] = molecular target: D(2) dopamine receptor (Homo sapiens) (UniProt P14416); experiment: Dopamine D2 receptor (DRD2) small molecule agonists, cell-based qHTS assay (AID 1963594); settings: HEK293-DRD2 cAMP HTRF, agonist mode, 30 min; activation: at 92.4 µM (top of the series) unless noted; also: nearly all actives have a fitted effect of over 35% in size; as to activation: % is scaled to controls: 0 for no effect and ±100 for the full control effect
Summary of the method: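 HEK293 cells stably expressing DRD2 were cultured 24 h at 37 C, then given Ro20-1724 (0.1 mM final) and compounds for 10 min at room temperature. NKH477 (200nM) was then added for 30 min. cAMP was read by HTRF.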

[8] = molecular target: D(2) dopamine receptor (Homo sapiens) (UniProt P14416); experiment: Dopamine D2 receptor (DRD2) small molecule antagonists, cell-based qHTS assay (AID 1963595; active = well fitted inhibition curve with a large enough effect in the signal ratio in the repeat runs, with a control signal flat; inconclusive = weak or mixed curves, or effect the other way; the % refers to the signal ratio); settings: HEK293-DRD2 cAMP HTRF antagonist mode; activity change, negative = inhibition: at 92.4 µM (top of the series) unless noted
Summary of the method: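 DRD2-HEK293; 0.1 mM Ro20-1724; cpd 10 min RT; NKH477 200 nM + quinpirole 12 nM, 30 min RT; HTRF cAMP (cAMP-d2/anti-cAMP cryptate), 665/620 nm ratio after 1 h.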

[9] = molecular target: 5-hydroxytryptamine receptor 2A (Homo sapiens) (UniProt P28223); experiment: 5-hydroxytryptamine receptor 2A (HTR2A) small molecule agonists, cell-based qHTS assay (AID 1963587); also: nearly all actives have a fitted effect of over 30% in size
Summary of the method: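 HTR2A-CHO cells, plated 18 h at 37 C/5% CO2, dye-loaded 1 h at 37 C; compounds in DMSO added by pin tool (agonist mode). Intracellular calcium flux read as kinetic fluorescence on FDSS over 2 min at 1 s intervals.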

[10] = molecular target: Beta-2 adrenergic receptor (Homo sapiens) (UniProt P07550); experiment: Adrenergic beta2 receptor (ADRB2) small molecule antagonists, cell-based qHTS assay (AID 1963592); settings: CHO-ADRB2 cells, isoproterenol-stimulated cAMP HTRF ratio, 0.5 h; activity change, negative = inhibition: at 92.4 µM (top of the series) unless noted; also: nearly all actives have a fitted effect of over 50% in size
Summary of the method: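 Assay format: CHO-ADRB2 cells, 18-20hr seeding at 37C/5% CO2, then compound plus 1nM isoproterenol agonist mix for 0.5hr RT. Homogeneous time-resolved fluorescence cAMP detection after 1hr, expressed as 665/615 nm ratio.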

[11] = molecular target: Muscarinic acetylcholine receptor M1 (Homo sapiens) (UniProt P11229); experiment: Cholinergic receptor muscarinic 1 (CHRM1) small molecule antagonists, cell-based qHTS assay (AID 1963588); also: nearly all actives have a fitted effect of over 40% in size
Summary of the method: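 Compounds were tested at 15 concentrations in three independent runs. Dye-loaded CHRM1-CHO cells were exposed 5 min at room temperature before stimulation by acetylcholine added at 50nM. Intracellular calcium was read kinetically on FDSS for 3 min.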

[12] = activation: at 92.4 µM (top of the series) unless noted
Potency is read from the fitted curve at half-maximal effect.

O=C(O)c1ccc(Cl)c(Cl)c1
Potency [1]: inconclusive: 0.001 µM [cytotoxic, full curve, poor fit]
Potency [2]: inactive
Potency [3]: inconclusive: 61.1 µM [rising, partial curve, poor fit]
activation [4, 12]: inconclusive: -39.6%

C=C(C)C(=O)O
Potency [1]: inconclusive: 1.82 µM [cytotoxic, single point]
Potency [2]: inconclusive: 16.2 µM [falling, partial curve, poor fit]
Potency [5]: inconclusive: 1.68 µM [inhibitor, single point]
activation [4, 12]: inconclusive: 19.1%
activation ([4]; at 92.4 µM (top of the series)): inactive: -35.7%

O=C(O)Cc1sc(-c2ccccc2)nc1-c1ccc(Cl)cc1
Potency [1]: inconclusive: 22.3 µM [cytotoxic, single point]
Potency [2]: inconclusive: 6.3 µM [rising, partial curve]
Potency [3]: inconclusive: 13.3 µM [rising, partial curve]
Potency [6]: inconclusive: 18.8 µM [fluorescent, partial curve, poor fit]
Potency [4, 12]: inactive
activation [7]: inconclusive: 24.9% [at 42.5 µM]

C[Si](C)O[Si](C)(C)O[Si](C)(C)O[Si](C)C
Potency [1]: inactive
Potency [2]: inactive
activation [4, 12]: inconclusive: -32.3%

COC(=O)/C=C\C(=O)OC
Potency [1]: inconclusive: 51.3 µM [rising, single point]
Potency [2]: inactive
Potency [6]: inactive
activation [4, 12]: inconclusive: -55.6%
activation ([4]; at 42.5 µM (top of the series)): inactive: 8.45%
Potency [8]: inactive

c1ccc2c(c1)Cc1ccccc1-2
Potency [1]: inactive
Potency [5]: inconclusive: 4.21 µM [inhibitor, single point]
Potency [9]: inactive
Potency [6]: inactive
Potency [4, 12]: inconclusive: 27.7 µM [inhibitor, single point]
activation [4, 12]: inconclusive: 1.28%

CCCCCCCCCCCCCOP(=O)(O)O
Potency [1]: inconclusive: 2.57 µM [rising, partial curve, poor fit]
Potency [2]: inconclusive: 14.5 µM [rising, partial curve]
Potency [4, 12]: inactive

COc1ccc2c(c1OC)C(=O)O[C@@H]2[C@H]1c2c(cc3c(c2OC)OCO3)CCN1C
Potency [1]: inconclusive: 22.3 µM [rising, single point]
Potency [2]: inconclusive: 22.3 µM [activator]
activation [4, 12]: inconclusive: 16.9% [at 42.5 µM]
activity change, negative = inhibition [8]: inconclusive: -23.9% [at 42.5 µM]

FC(F)(F)C(F)(F)C(F)(F)C(F)(F)CCI
Potency [1]: inconclusive: 0.166 µM [cytotoxic, single point]
Potency [2]: inactive
Potency [10]: inactive
Potency [4, 12]: inactive

CN(C)CCOCCN(C)CCO
Potency [1]: inconclusive: 1.02 µM [rising, partial curve, poor fit]
Potency [2]: inactive
Potency [6]: inactive
Potency [4, 12]: inconclusive: 54.5 µM [activator, partial curve, poor fit]
Potency [7]: inactive

COc1ccccc1N1CCN(CCCCNC(=O)c2ccc(-c3ccc(C(C)=O)cc3)cc2)CC1
Potency [1]: inconclusive: 0.0793 µM [rising, single point]
Potency [5]: active: 0.326 µM
Potency [9]: active: 0.0535 µM
Potency [11]: active: 1.03 µM
activity change, negative = inhibition [6]: inconclusive: 0.375% [at 42.4 µM]
Potency [10]: inconclusive: 2.37 µM [inhibitor, full curve]
Potency [4, 12]: inconclusive: 0.75 µM [inhibitor, full curve]
Potency [7]: inactive
Potency [8]: active: 0.75 µM

CCOc1cccc(N)c1
Potency [1]: inactive
Potency [2]: inactive
Potency [4, 12]: inconclusive: 1.08 µM [inhibitor]

CC(COc1ccc(C(C)(C)C)cc1)OS(=O)OCCCl (stereo not drawn)
Potency [1]: inconclusive: 1.83 µM [cytotoxic, full curve]
Potency [2]: inactive
Potency [6]: active: 43.5 µM
Potency [4, 12]: inconclusive: 27.4 µM [inhibitor, single point]

C=CC(=O)OCCC(=O)O
Potency [1]: inconclusive: 59.5 µM [rising, single point]
Potency [2]: inconclusive: 21.1 µM [rising, full curve, poor fit]
Potency [4, 12]: inconclusive: 709 nM [inhibitor, single point] and inactive

CCOC(=O)C1=C(C)NC(C)=C(C(=O)OC)C1c1cccc([N+](=O)[O-])c1 (stereo not drawn)
Potency [1]: inactive
Potency [2]: inactive
Potency [4, 12]: inconclusive: 23.7 µM [inhibitor, partial curve, poor fit]

Cc1occc(=O)c1OC(=O)C(C)C
Potency [1]: inconclusive: 0.162 µM [cytotoxic, single point]
Potency [2]: inconclusive: 45.8 µM [activator]
activation [4, 12]: inconclusive: -20.4%

FC(F)(F)c1ccccc1
Potency [1]: inactive
Potency [2]: inactive
Potency [4, 12]: inconclusive: 37.6 µM [activator, partial curve, poor fit]

CC(CCc1ccc(O)cc1)NCCc1ccc(O)c(O)c1 (stereo not drawn)
Potency [1]: inconclusive: 6.3 µM [rising, full curve]
Potency [2]: inconclusive: 9.98 µM [rising, partial curve, poor fit]
activation [3]: inconclusive: 17.2% [at 42.5 µM]
Potency [4, 12]: inconclusive: 1.5 µM [activator, partial curve, poor fit]
Potency [7]: active: 0.0779 µM
Potency [8]: active: 10.6 µM

CC(=O)CCCCn1c(=O)c2c(ncn2C)n(C)c1=O
Potency [1]: inactive
Potency [2]: inactive
activation [4, 12]: inconclusive: 0.236% [at 42.5 µM]

Nc1ccn([C@@H]2O[C@H](CO)[C@@H](O)C2(F)F)c(=O)n1
Potency [1]: inconclusive: 0.158 µM [rising, full curve]
Potency [2]: active: 0.199 µM
Potency [10]: inconclusive: 13.3 µM [inhibitor, single point]
Potency [4, 12]: inconclusive: 16.8 µM [inhibitor]
Potency [7]: inconclusive: 33.5 µM [rising, single point]

COc1cc2c3cc1Oc1cc(ccc1O)C[C@@H]1c4c(cc(OC)c(O)c4Oc4ccc(cc4)C[C@@H]3N(C)CC2)CC[N+]1(C)C
Potency [1]: inactive
Potency [2]: inactive
Potency [4, 12]: inactive

CC1(C)CC(O)CC(C)(C)N1
Potency [1]: inconclusive: 41.6 µM [rising, single point]
Potency [2]: inactive
activation [4, 12]: inconclusive: -18.4%

CCCCCCCCC(C)=O
Potency [1]: inactive
Potency [2]: inactive
activation [4, 12]: inconclusive: 29.5%

COc1ccc(Nc2ccc(OC)cc2)cc1
Potency [1]: inconclusive: 46.6 µM [rising, single point]
activation [2]: inconclusive: 10.3%
activation [4, 12]: inconclusive: -3.05%

CC1(C)NC(=O)N(c2ccc([N+](=O)[O-])c(C(F)(F)F)c2)C1=O
Potency [1]: inconclusive: 0.561 µM [cytotoxic, single point]
Potency [2]: inconclusive: 16.2 µM
activity change, negative = inhibition [6]: inconclusive: 23.4%
Potency [10]: inactive
Potency [4, 12]: inconclusive: 1.22 µM [inhibitor, partial curve, poor fit]

Clc1cc(Cl)c(Cl)cc1Cl
Potency [1]: active: 16.2 µM
Potency [2]: inactive
activation [4, 12]: inconclusive: 15.2%
